For data set [1], the target named is T1, FASTK∆N1-75 del1-75 (Homo sapiens) (UniProt Q14296).
T1 sequence (looked up): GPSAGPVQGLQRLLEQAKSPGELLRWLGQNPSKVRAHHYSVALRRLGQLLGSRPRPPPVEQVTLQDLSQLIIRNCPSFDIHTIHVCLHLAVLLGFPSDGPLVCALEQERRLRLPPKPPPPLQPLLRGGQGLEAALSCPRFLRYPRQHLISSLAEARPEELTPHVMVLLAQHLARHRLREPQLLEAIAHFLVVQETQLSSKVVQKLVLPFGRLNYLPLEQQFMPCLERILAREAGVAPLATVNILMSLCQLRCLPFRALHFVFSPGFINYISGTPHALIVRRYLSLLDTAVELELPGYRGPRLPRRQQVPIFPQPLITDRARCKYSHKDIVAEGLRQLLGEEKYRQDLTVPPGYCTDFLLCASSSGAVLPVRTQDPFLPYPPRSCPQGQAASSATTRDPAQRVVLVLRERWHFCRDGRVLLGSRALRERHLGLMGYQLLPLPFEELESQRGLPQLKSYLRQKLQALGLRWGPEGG
The data set is described as follows: MST. Conditions: MST: 1x PBS, 5% glycerol, 1 mM DTT, Tween-20 (0.05% in RNA stock), 20 nM RNA, 22 °C, RNA annealed in 50 mM Tris/HCl pH 7.5, 50 mM KCl (or LiCl), 50 mM NaCl, recombinant protein, residues 76-549, protein details: His6-SUMO cleaved.

Data set [2] addresses T2, FASTK∆N1-75 K275/K279/R286 mutant K275M,K279M,R286A,del1-75 (Homo sapiens) (UniProt Q14296).
T2 sequence (looked up): T1 sequence (looked up) with K200M, K204M, R211A
Briefly: MST. Conditions: MST: 1x PBS, 5% glycerol, 1 mM DTT, Tween-20 (0.05% in RNA stock), 20 nM RNA, 22 °C; RNA annealed in 50 mM Tris/HCl pH 7.5, 50 mM KCl (or LiCl), 50 mM NaCl; recombinant protein; residues 76-549; protein details: His6-SUMO cleaved; label: Cy5 body (CTP or UTP), 5' 32P in footprinting.

Where [3] appears, read: Kd higher than oligos 5 and 10, label: Cy5 body (CTP or UTP).
[4] abbreviates: range for ds and loop RNAs, label: Cy5.
The mark [5] stands for this setting: ssRNA range 2.7-10.3 nM, own value only in figure, label: Cy5.
The mark [6] stands for this setting: 100 mM Li+, no Na+, weaker than in K+, label: Cy5.

Substitutions are numbered along the chain they refer to. pKd: −log10 of the molar value. Weaker means in comparison with the reference protein, sequence or condition of that experiment. Protein sequences can lack the tags named with them. For some of these results: For at least one entry, the source does not settle the construct or the ends of the probe. For some of these results: At least one verdict was read from the data and is not stated in words by the source.

For the sequence “GAGGGGCAGGUUUUGGCUCGUAAGAAGGCCUAGAUAGGGGAUUGUGCGGUGUGUGAUGCUAGGGUAGAAUCCGAGUAUGUUGGAGAAAUAAAAUGUGCAUAGUGGGGAUUUUAUUUUAAGUUUGU [ND6 oligo 8]”, in data set [1] (setting [3]), the binding result is reported as “binds more weakly”.

In the case of “GAGGGGUCAGGGUUGAUUCGGGAGGAUCCUAUUGGUGCGGGGGCUUUGUAUGAUUAUGGGCGUUGAUUAGUAGUAGUUACUGGUUGAACAUUGUUUGUUGGUGUAUAUAUUGUAAUUGAGAUUGC [ND6 oligo 5]”, in data set [2], the binding result was “binds more weakly”.

As for “GAUCCGGGAGGACCC / GGGUCUGUGGGGUC [internal loop]”, the binding result in data set [1] (setting [4]) is on record as “binds more weakly”.

Consider “GAUGAUGUAUGCUUUGUUUCUGUUGAGUGUGGGUUUAGUAAUGGGGUUUGUGGGGUUUUCUUCUAAGCCUUCUCCUAUUUAUGGGGGUUUAGUAUUGAUUGUUAGCGGUGUGG [ND6 oligo 1]”, for which the binding result in data set [1] (setting [3]) is “binds more weakly”.

Take “GGAUGGUUGUCUUUGGAUAUACUACAGCGAUGGCUAUUGAGGAGUAUCCUGAGGCAUGGGGGUCAGGGGUUGAGGUCUUGGUGAGUGUUUUAGUGGGGUUAGCGAUGGAGGUAGGAUUGGUGCUG [ND6 oligo 3]”: the binding result in data set [1] (setting [3]) is “binds more weakly”.

As for “GGCGAUGGAGGUAGGAUUGGUGCUGUGGGUGAAAGAGUAUGAUGGGGUGGUGGUUGUGGUAAACUUUAAUAGUGUAGGAAGCUGAAUAAUUUAUGAAGGAGAGGGGUCAGGGUUGAUUCGGGAGG [ND6 oligo 4]”, in data set [1] (setting [3]), the binding result was “binds more weakly”.

On to “GGUGGGGAUUUUAUUUUAAGUUUGUUGGUUAGGUAGUUGAGGUCUAGGGCUGUUAGAAGUCCUAGGAAAGUGACAGCGAGGGCUGUGAGUUUUAGGUAGAGGGGGAUUGUUGUUUGGAAGGGGGA [ND6 oligo 9]”, for which the binding result in data set [1] (setting [3]) is on record as “binds more weakly”.

With “GUAGUAUUGAUUGUUAGCGGUGUGGUCGGGUGUGUUAUUAUUCUGAAUUUUGGGGGAGGUUAUAUGGGUUUAAUAGUUUUUUUAAUUUAUUUAGGGGGAAUGAUGGUUGUCUUUGGAUAUACUAC [ND6 oligo 2]”, in data set [1] (setting [3]), the binding result is “binds more weakly”.

For “GUAUGCCUUUUUGGGUUGAGGUGAUGAUGGAGGUGGAGAUUUGGUGCUGUGAAAUUGUUUUAGGUAAUAGCUUUUCUAGUCAGGUUAGGUCUAGGAGGAGUAGGGGCAGGUUUUGGCUCGUAAGA [ND6 oligo 7]”, the binding result in data set [1] (setting [3]) is “binds more weakly”.

For “GUCUCUGCAGUAGUUA / UAACUACUGCAGAGAC [dsRNA (ssRNA1+ssRNA2)]”, the binding result in data set [1] (setting [4]) is listed as “binds more weakly”.

A word on the pKd: it is the negative decadic logarithm of the Kd, by convention in mol/L. In the case of GUCUCUGCAGUAGUUA [ssRNA1], in data set [1] (setting [5]), the pKd is > 7.99.

Take “GUGUAUAUAUUGUAAUUGAGAUUGCUCGGGGGAAUAGGUUAUGUGAUUAGGAGUAGGGUUAGGAUGAGUGGGAAGAAGAAAGAGAGGAAGUAAAGUUUAAUUAUGCCUUUUUGGGUUGAGGUGAU [ND6 oligo 6]”: the binding result in data set [1] (setting [3]) was “binds more weakly”.

With UAACUACUGCAGAGAC [ssRNA2], the negative logarithm of the Kd (pKd) in data set [1] (setting [5]) is > 7.99.

Take UGGGUCAUUGAUGAUGAUCCA [stem loop]: the binding result in data set [1] (setting [4]) is listed as “binds more weakly”.

For “UUACCCUUACCCUUACCCUUACCC [TERRA C-rich mutant]”, the binding result is “binds more weakly” in data set [1] (setting [6]) and “binds more weakly” in data set [1] (Li+ annealed, Na+ present, Kd unchanged, label: Cy5). Also, the pKd in data set [1] (K+ annealed, label: Cy5) is 7.48.

“UUAGAGUUAGUGUUAGAGUUAGUG [TERRA AU-rich mutant]”: the binding result in data set [1] (setting [6]) is on record as “binds more weakly”.

For UUAGGGUUAGGGUUAGGGUUAGGG [TERRA], the binding result in data set [1] (setting [6]) is reported as “binds more weakly”.
